The values that follow come from patent US20140134177A1.

These are yes or no findings as the source states them, for the method shown. Some entries that bind do so weakly or less than the wild type.

For this assay, the target named is FLAG-LGR5-CD4TM (human) (UniProt P01730). The assay is described as follows: FACS based assay, Fab format.

B1: 88R21 Fab (Fab, V domains shown)
VH: QVQLVQSGAEVKKPGSSVKVSCKASGRTFSNYAIGWVRQAPGQGLEWMGGIRPNFGWAKYAQKFQGRVTITADESTSTAYMELSSLRSEDTAVYYCARYGQGHFPSAFDYWGQGTLVTVSS
VL: DIALTQPASVSGSPGQSITISCTGTNSDVGTYNYVHWYQQHPGKAPKLMIYDGSNRPSGVSNRFSGSKSGNTASLTISGLQAEDEADYYCQAYDSHSFNIVFGGGTKLTVLG
Regarding B1, the binding entry was “binds”.
